Consider 30 compounds from patent publication US20250075147A1, “FRAGRANCE AND FLAVOR COMPOSITIONS COMPRISING NEW FLAVOR AND FRAGRANCE INGREDIENTS” (priority 2023, published 2025).

The test system of one data set is odor evaluation panel. The experiment in a line: Odor evaluation panel rating of odorants by Rate-All-That-Apply (RATA) method with 55-word odor lexicon, plus intensity and pleasantness. The note with it: for Floral: mean panelist score for odor label floral (RATA); for Fruity: mean panelist score for odor label fruity (RATA); for Spicy: mean panelist score for odor label spicy (RATA); for Sweet: mean panelist score for odor label sweet (RATA); for Pleasantness: mean panelist score for odor pleasantness. Details: species or system human.

Data set [1] is described as follows: Evaluation by trained and/or certified flavor or fragrance chemists or master perfumers; categorization by commercial prospect. As to conditions: for Rating (category of commercial prospect): evaluation by trained flavor or fragrance chemists or master perfumers; for Rating: category of commercial prospect, (A) highest > (B) > (C) > (D) lowest, (E) requires further study.

Consider `C=CN1CCCCCC1=O` [Compound 147, 1-ethenylazepan-2-one], for which, in the data set on odor evaluation panel, the Floral was determined as 0.303, the Fruity is 0.667, the Spicy is 0.152 and the Sweet worked out at 1. Moreover, the Pleasantness with odor evaluation panel was determined as 5.712.
Consider `CON(C)C(C)=O` [Compound 592, N-methoxy-N-methylacetamide], for which, in the data set on odor evaluation panel, the Floral is listed as 0.235, the Fruity was found to be 0.235, the Spicy is reported as 0.029 and the Sweet is recorded as 0.794. Further, the Pleasantness in the data set with odor evaluation panel is given as 5.726. In addition, in data set [1], the “Rating (category of commercial prospect)” value was “(D)”.
As for `CC(C)(C)SC(C)(C)C` [Compound 898, 2-tert-butylsulfany1-2-methylpropane], in the data set on odor evaluation panel, the Floral amounted to 0.194, the Fruity turned out to be 0.167, the Spicy worked out at 0.167 and the Sweet was 0.194. In data set [1], the “Rating (category of commercial prospect)” value is “(D)”.
As for `Cc1cc(=O)[nH]c(C)n1` [Compound 596, 2,4-dimethyl-1H-pyrimidin-6-one], in the data set on odor evaluation panel, the Floral was 0.029, the Fruity is given as 0, the Spicy was found to be 0.2 and the Sweet is 0.086. The Pleasantness with odor evaluation panel was 5.249. The “Rating (category of commercial prospect)” value in data set [1] is given as “(B)”.
On to `C=CC(O)C#CC(C)(C)C` (stereo not drawn) [Compound 277, 6,6-dimethylhept-1-en-4-yn-3-ol], for which, in the data set on odor evaluation panel, the Floral was determined as 0.281, the Fruity amounted to 0, the Spicy is recorded as 0.375 and the Sweet is listed as 0.188. For the same compound, in the data set on odor evaluation panel, the Pleasantness is recorded as 4.372. Further, the Rating entry in data set [1] is “(D)”.
For `NCCSSCCN` [Compound 709, 2-(2-aminoethyldisulfanyl)ethanamine], in the data set on odor evaluation panel, the Floral stood at 0.094, the Fruity turned out to be 0, the Spicy was found to be 0.094 and the Sweet was determined as 0. The Pleasantness with odor evaluation panel is 5.097. For the same compound, the “Rating (category of commercial prospect)” value in data set [1] is reported as “(D)”.
In the case of `COC(=O)c1cccnc1OC` [Compound 776, methyl 2-methoxypyridine-3-carboxylate], in the data set with odor evaluation panel, the Floral was determined as 0.25, the Fruity is 0.094, the Spicy worked out at 0.094 and the Sweet came out at 0.938. Also, the Pleasantness in the data set with odor evaluation panel is recorded as 5.966. For the same compound, in data set [1], the “Rating (category of commercial prospect)” value is reported as “(B)”.
As to `CC(C)(C)OC(=O)C(C)(C)C` [Compound 157, tert-butyl 2,2-dimethylpropanoate], in the data set on odor evaluation panel, the Floral was found to be 0.281, the Fruity is on record as 0, the Spicy was found to be 0 and the Sweet amounted to 0.75. Further, the Pleasantness with odor evaluation panel turned out to be 5.925. Further, the Rating entry in data set [1] is given as “(D)”.
On to `O=c1cc[nH]cc1[N+](=O)[O-]` [Compound 458, 3-nitro-1H-pyridin-4-one], for which, in the data set on odor evaluation panel, the Floral worked out at 0.129, the Fruity was 0.129, the Spicy stood at 0 and the Sweet is listed as 0.323. In the data set on odor evaluation panel, the Pleasantness is on record as 5.371. Also, the Rating entry in data set [1] is on record as “(A)”.
Regarding `O=C(O)c1cscn1` [Compound 490, 1,3-thiazole-4-carboxylic acid], in the data set on odor evaluation panel, the Floral is given as 0, the Fruity is given as 0, the Spicy came to 0.281 and the Sweet was found to be 0. For the same compound, the Pleasantness with odor evaluation panel is listed as 1.919. In addition, the Rating entry in data set [1] was “(D)”.
With `Cc1cc(=O)[nH]o1` [Compound 959, 5-methyl-1,2-oxazol-3-one], in the data set on odor evaluation panel, the Floral is recorded as 0, the Fruity was found to be 0, the Spicy is 0.091 and the Sweet was determined as 0.242. Besides, the Pleasantness with odor evaluation panel came to 5.491. The “Rating (category of commercial prospect)” value in data set [1] is given as “(D)”.
Take `CCC(O)COC` (stereo not drawn) [Compound 881, 1-methoxybutan-2-ol]: in the data set on odor evaluation panel, the Floral turned out to be 0.206, the Fruity came out at 0.382, the Spicy was 0.324 and the Sweet was 0.647. Moreover, the Pleasantness with odor evaluation panel amounted to 4.944. Also, in data set [1], the “Rating (category of commercial prospect)” value is reported as “(D)”.
Turning to `Cc1ccncc1C` [Compound 897, 3,4-dimethylpyridine], in the data set with odor evaluation panel, the Floral is on record as 0.167, the Fruity was determined as 0.8, the Spicy amounted to 0.233 and the Sweet was found to be 1.333. Besides, the Pleasantness in the data set on odor evaluation panel stood at 5.26. The “Rating (category of commercial prospect)” value in data set [1] was “(D)”.
With `CCOC(=O)c1cc(C)nn1C` [Compound 762, ethyl 2,5-dimethylpyrazole-3-carboxylate], in the data set on odor evaluation panel, the Floral was 0.286, the Fruity was found to be 0.029, the Spicy is 1.029 and the Sweet was found to be 0.914. In the data set with odor evaluation panel, the Pleasantness came out at 4.606. In data set [1], the “Rating (category of commercial prospect)” value is “(A)”.
Regarding `N#CCCNc1ccccc1` [Compound 704, 3-anilinopropanenitrile], in the data set with odor evaluation panel, the Floral is 0.125, the Fruity is listed as 0.062, the Spicy is given as 0 and the Sweet is 0.406. Besides, in the data set on odor evaluation panel, the Pleasantness is recorded as 5.003. The “Rating (category of commercial prospect)” value in data set [1] is “(D)”.
`Cc1nc(N)sc1C` [Compound 45, 4,5-dimethyl-1,3-thiazol-2-amine]: in the data set on odor evaluation panel, the Floral was found to be 0.031, the Fruity came out at 0, the Spicy came to 0.156 and the Sweet was found to be 1.031. Also, the Pleasantness in the data set on odor evaluation panel stood at 5.316. Further, the Rating entry in data set [1] is reported as “(B)”.
Consider `NC(CO)Cc1ccccc1` (stereo not drawn) [Compound 238, 2-amino-3-phenylpropan-1-ol], for which, in the data set on odor evaluation panel, the Floral was 0.2, the Fruity turned out to be 0, the Spicy is listed as 0.114 and the Sweet amounted to 0.114. For the same compound, the Pleasantness in the data set on odor evaluation panel turned out to be 3.891. In addition, the Rating entry in data set [1] is listed as “(D)”.
`Cc1cc(C#N)c(N)s1` [Compound 598, 2-amino-5-methylthiophene-3-carbonitrile]: in the data set on odor evaluation panel, the Floral came to 0.324, the Fruity is 0.529, the Spicy was 0.529 and the Sweet turned out to be 1.647. The Pleasantness in the data set with odor evaluation panel was found to be 6.135. Moreover, the “Rating (category of commercial prospect)” value in data set [1] is given as “(D)”.
`CC(C)=CCC/C(C)=C1\CC=C(C)CC1` [Compound 585, (4Z)-1-methyl-4-(6-methylhept-5-en-2-ylidene)cyclohexene]: in the data set on odor evaluation panel, the Floral amounted to 0.226, the Fruity is 0.645, the Spicy stood at 0 and the Sweet is reported as 1.129. Moreover, the Pleasantness in the data set on odor evaluation panel is reported as 4.977. Also, the “Rating (category of commercial prospect)” value in data set [1] was “(C)”.
As to `NC(=O)Oc1ccccc1` [Compound 934, phenyl carbamate], in the data set on odor evaluation panel, the Floral was 0, the Fruity worked out at 0, the Spicy is listed as 0 and the Sweet was found to be 0.139. Also, in data set [1], the “Rating (category of commercial prospect)” value is listed as “(D)”.
For `CCN(CC)CCOCCO` [Compound 433, 2-[2-(diethylamino)ethoxy]ethanol], in the data set with odor evaluation panel, the Floral is 0.212, the Fruity is listed as 0.364, the Spicy is given as 0 and the Sweet stood at 0.727. In addition, the Pleasantness in the data set on odor evaluation panel came out at 5.17. For the same compound, the Rating entry in data set [1] is “(D)”.
With `N#CC1CCOCC1` [Compound 946, oxane-4-carbonitrile], in the data set with odor evaluation panel, the Floral is on record as 0.914, the Fruity was found to be 1.457, the Spicy came to 0 and the Sweet turned out to be 1.886. In addition, in the data set with odor evaluation panel, the Pleasantness is 5.92. Further, the “Rating (category of commercial prospect)” value in data set [1] was “(D)”.
With `CCc1ncc[nH]1` [Compound 401, 2-ethyl-1H-imidazole], in the data set on odor evaluation panel, the Floral is on record as 0.083, the Fruity came to 0.028, the Spicy is reported as 0 and the Sweet is 0.139. Also, the Rating entry in data set [1] was “(D)”.
`CCNCCC#N` [Compound 281]: in the data set with odor evaluation panel, the Floral stood at 0.031, the Fruity stood at 0, the Spicy stood at 0.062 and the Sweet was 0.281. Further, the Pleasantness in the data set with odor evaluation panel amounted to 3.497. Besides, in data set [1], the Rating entry is listed as “(D)”.
`CSC(=N)N` [Compound 730, methyl carbamimidothioate]: the “Rating (category of commercial prospect)” value in data set [1] is reported as “(D)”.
Turning to `CC/C(C)=N/O` [Compound 518, (NE)-N-butan-2-ylidenehydroxylamine], in the data set with odor evaluation panel, the Floral stood at 0.394, the Fruity was 0.061, the Spicy came out at 0.242 and the Sweet is reported as 0.636. Also, in the data set on odor evaluation panel, the Pleasantness came to 5.176.
For `CCCCCCCCCC(=O)N(C)C` [Compound 90, N,N-dimethyl decanamide], in the data set on odor evaluation panel, the Floral amounted to 0.062, the Fruity is 0.062, the Spicy is 0.281 and the Sweet was 0.219. Also, the Pleasantness in the data set on odor evaluation panel is 3.359.
Consider `CCC(C)=NO` [Compound 895, N-butan-2-ylidenehydroxylamine], for which, in the data set on odor evaluation panel, the Floral came out at 0.3, the Fruity was 0, the Spicy is 0.267 and the Sweet worked out at 0.9. In the data set on odor evaluation panel, the Pleasantness worked out at 4.627.
For the compound `Cc1ccc(N)c(N)c1` [Compound 206, 4-methylbenzene-1,2-diamine], in the data set with odor evaluation panel, the Floral came to 0.028, the Fruity worked out at 0.139, the Spicy is on record as 0.056 and the Sweet turned out to be 0.167.
`CCCCC(CC)CNCC(CC)CCCC` (stereo not drawn) [Compound 30, 2-ethyl-N-(2-ethylhexyl)hexan-1-amine]: in the data set on odor evaluation panel, the Floral is listed as 0.281, the Fruity is on record as 0, the Spicy came to 0 and the Sweet stood at 0.125. Also, the Pleasantness in the data set with odor evaluation panel was 3.647.
